This is one part of the list. Rule as the data show it: active = 0.7 or more and inactive = the rest. Most values come without repeats; read them as rough.

For this assay, the system named is MiaPaCa-2 CLSA-25. Put plainly: cell death relative to DMSO vehicle (fraction); higher = more cytotoxic. The following applies: 5 µM; treatment time 48 h; medium cystine 25 µM.
For `COc1cc(C2Oc3ccc(C4Oc5cc(O)cc(O)c5C(=O)C4O)cc3OC2CO)ccc1O` (configuration not stated) [Isosilybin], the cell death is active: 0.703.

For the molecule `C[C@H](CCC(=O)O)[C@H]1CC[C@H]2[C@@H]3C[C@H](O)[C@@H]4C[C@H](O)CC[C@]4(C)[C@H]3CC[C@]12C` [Hyodeoxycholic acid], the cell death is inactive: 0.0455.

On to `CC(=O)OC/C=C(C)/C=C/C=C(C)/C=C/C1=C(C)CCCC1(C)C` [Retinyl acetate], for which the cell death is inactive: 0.0773.

Take `O=C(Nc1ccc(O)cc1)c1ccccc1O` [Osalmid]: the cell death is inactive: 0.41.

`O=c1oc2ccccc2c(O)c1Cc1c(O)c2ccccc2oc1=O` [Dicumarol]: the cell death is inactive: 0.123.

For the molecule `CCOc1cc([C@@H](CS(C)(=O)=O)N2C(=O)c3cccc(NC(C)=O)c3C2=O)ccc1OC` [Apremilast], the cell death was inactive: 0.217.

With `COc1ccc2c(c1)c(CC(=O)O)c(C)n2C(=O)c1ccc(Cl)cc1` [Indometacin], the cell death is inactive: 0.0126.
